{"source": "PubChem BioAssay AID686943 (Drosophila RNAi Screening Center, 2013)", "test": "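Search across the genome for regulators of signalling from receptor tyrosine kinase to ERK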 (primary screen)", "system": "Drosophila S2R+ haemocyte-like cells expressing YFP-tagged ERK (Rolled)", "reagents": "long dsRNA against Drosophila genes", "challenge": "insulin stimulation versus unstimulated cells; dose and duration not given", "measured": "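Antibody staining for doubly phosphorylated ERK divided by ERK-YFP signal, as plate z-scores, in insulin-treated and untreated cells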", "direction": "replicate 1, z-score of dpERK with insulin and replicate 2, z-score of dpERK with insulin: higher = more active ERK per ERK-YFP after insulin", "note": "The deposit covers about 23,000 reagents; below is a random part of those with a known target gene and a result. 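Extra replicates exist only for a retested subset of genes; insulin dose and duration not given; both raised and lowered dpERK matter.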 Names joined by + are all predicted targets of the reagent. Further read-outs or replicates are left out here. Not given: the amount of reagent, the time to read-out."}
{"gene knocked down":"CG43896","amplicon":"DRSC10288","replicate 1, z-score of dpERK with insulin":0.34,"replicate 2, z-score of dpERK with insulin":-0.11}
{"gene knocked down":"CG43896","amplicon":"DRSC10754","replicate 1, z-score of dpERK with insulin":0.92,"replicate 2, z-score of dpERK with insulin":0.17}
{"gene knocked down":"Tasp1","amplicon":"DRSC10495","replicate 1, z-score of dpERK with insulin":-0.19,"replicate 2, z-score of dpERK with insulin":-0.01}
{"gene knocked down":"sqa","amplicon":"DRSC06693","replicate 1, z-score of dpERK with insulin":0.21,"replicate 2, z-score of dpERK with insulin":-0.16}
{"gene knocked down":"sqa","amplicon":"DRSC21635","replicate 1, z-score of dpERK with insulin":0.38,"replicate 2, z-score of dpERK with insulin":0.36}
{"gene knocked down":"Naa30B","amplicon":"DRSC08245","replicate 1, z-score of dpERK with insulin":0.03,"replicate 2, z-score of dpERK with insulin":-0.03}
{"gene knocked down":"Nha1","amplicon":"DRSC02109","replicate 1, z-score of dpERK with insulin":0.33,"replicate 2, z-score of dpERK with insulin":-0.48}
{"gene knocked down":"crn","amplicon":"DRSC18184","replicate 1, z-score of dpERK with insulin":2.16,"replicate 2, z-score of dpERK with insulin":-0.64}
{"gene knocked down":"crn","amplicon":"DRSC18185","replicate 1, z-score of dpERK with insulin":1.21,"replicate 2, z-score of dpERK with insulin":-0.44}
{"gene knocked down":"crn","amplicon":"DRSC18755","replicate 1, z-score of dpERK with insulin":0.43,"replicate 2, z-score of dpERK with insulin":-1.77}
{"gene knocked down":"vilya","amplicon":"DRSC18588","replicate 1, z-score of dpERK with insulin":0.07,"replicate 2, z-score of dpERK with insulin":0.37}
{"gene knocked down":"jbug","amplicon":"DRSC03952","replicate 1, z-score of dpERK with insulin":-0.53,"replicate 2, z-score of dpERK with insulin":-0.19}
{"gene knocked down":"jbug","amplicon":"DRSC04114","replicate 1, z-score of dpERK with insulin":-0.07,"replicate 2, z-score of dpERK with insulin":0.78}
{"gene knocked down":"jbug","amplicon":"DRSC04167","replicate 1, z-score of dpERK with insulin":-0.49,"replicate 2, z-score of dpERK with insulin":-1.01}
{"gene knocked down":"jbug","amplicon":"DRSC04388","replicate 1, z-score of dpERK with insulin":-0.18,"replicate 2, z-score of dpERK with insulin":-0.13}
{"gene knocked down":"CG10654","amplicon":"DRSC09767","replicate 1, z-score of dpERK with insulin":-0.04,"replicate 2, z-score of dpERK with insulin":-0.27}
{"gene knocked down":"CG14515","amplicon":"DRSC14867","replicate 1, z-score of dpERK with insulin":-1.44,"replicate 2, z-score of dpERK with insulin":-0.23}
{"gene knocked down":"CR43087 + CR43086 + CG34002","amplicon":"DRSC11953","replicate 1, z-score of dpERK with insulin":1.62,"replicate 2, z-score of dpERK with insulin":0.68}
{"gene knocked down":"CG9449","amplicon":"DRSC11073","replicate 1, z-score of dpERK with insulin":-0.13,"replicate 2, z-score of dpERK with insulin":0.11}
{"gene knocked down":"Arfip","amplicon":"DRSC15179","replicate 1, z-score of dpERK with insulin":-0.13,"replicate 2, z-score of dpERK with insulin":0.43}
{"gene knocked down":"aqrs","amplicon":"DRSC14724","replicate 1, z-score of dpERK with insulin":0.96,"replicate 2, z-score of dpERK with insulin":-0.06}

Just “replicate 2, z-score of dpERK with insulin” (3 entries from above):
CR43087 + CR43086 + CG34002 [DRSC11953]: 0.68
CG9449 [DRSC11073]: 0.11
Arfip [DRSC15179]: 0.43
